# Source: PMC8384837
# Substitutions are numbered along the chain they refer to. Some of the results follow. For some of these results: At the low end of the ranking the order means little. For some of these results: Construct or isoform of the protein are uncertain.
# Legend:
# Conditions in all cases: yeast three-hybrid, YBZ-1, SC-Leu-His + 0.5 mM 3-AT, 4 days
# [1] = target: T1, PUM1 PUF domain R3-VNV C935V + R936N + Q939V (Homo sapiens) (UniProt Q14671)
# T1 sequence: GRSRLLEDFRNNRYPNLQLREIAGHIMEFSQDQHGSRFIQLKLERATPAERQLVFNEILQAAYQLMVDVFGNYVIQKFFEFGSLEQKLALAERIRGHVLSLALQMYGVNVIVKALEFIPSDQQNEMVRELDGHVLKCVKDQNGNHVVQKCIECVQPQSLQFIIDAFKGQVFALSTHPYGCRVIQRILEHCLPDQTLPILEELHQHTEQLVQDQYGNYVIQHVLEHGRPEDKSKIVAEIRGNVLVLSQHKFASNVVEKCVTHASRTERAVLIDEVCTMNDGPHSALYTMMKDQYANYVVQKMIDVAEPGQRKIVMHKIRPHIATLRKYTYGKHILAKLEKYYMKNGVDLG
# [2] = target: T2, PUM1 PUF domain R3-VRA C935V + Q939A (Homo sapiens) (UniProt Q14671)
# T2 sequence: T1 sequence with N109R, V112A
# [3] = target: T3, PUM1 PUF domain R3-VRC C935V + Q939C (Homo sapiens) (UniProt Q14671)
# T3 sequence: T1 sequence with N109R, V112C
# [4] = target: T4, PUM1 PUF domain R3-VRD C935V + Q939D (Homo sapiens) (UniProt Q14671)
# T4 sequence: T1 sequence with N109R, V112D
# [5] = target: T5, PUM1 PUF domain R3-VRE C935V + Q939E (UniProt Q14671)
# T5 sequence: T1 sequence with N109R, V112E
# [6] = target: T6, PUM1 PUF domain R3-VRF C935V + Q939F (UniProt Q14671)
# T6 sequence: T1 sequence with N109R, V112F
# [7] = target: T7, PUM1 PUF domain R3-VRG C935V + Q939G (Homo sapiens) (UniProt Q14671)
# T7 sequence: T1 sequence with N109R, V112G
# [8] = target: T8, PUM1 PUF domain R3-VRH C935V + Q939H (UniProt Q14671)
# T8 sequence: T1 sequence with N109R, V112H
# [9] = target: T9, PUM1 PUF domain R3-VRL C935V + Q939L (Homo sapiens) (UniProt Q14671)
# T9 sequence: T1 sequence with N109R, V112L
# [10] = target: T10, PUM1 PUF domain R3-VRN C935V + Q939N (Homo sapiens) (UniProt Q14671)
# T10 sequence: T1 sequence with N109R, V112N
# [11] = target: T11, PUM1 PUF domain R3-VRS C935V + Q939S (Homo sapiens) (UniProt Q14671)
# T11 sequence: T1 sequence with N109R, V112S
# [12] = target: T12, PUM1 PUF domain R3-VRT C935V + Q939T (UniProt Q14671)
# T12 sequence: T1 sequence with N109R, V112T
# [13] = target: T13, PUM1 PUF domain R3-VRV C935V + Q939V (Homo sapiens) (UniProt Q14671)
# T13 sequence: T1 sequence with N109R
# [14] = target: T14, PUM1 PUF domain R3-VRW C935V + Q939W (UniProt Q14671)
# T14 sequence: T1 sequence with N109R, V112W
# [15] = target: T15, PUM1 PUF domain R3-VRY C935V + Q939Y (UniProt Q14671)
# T15 sequence: T1 sequence with N109R, V112Y
# [16] = target: T16, PUM1 PUF domain R3-WCA C935W + R936C + Q939A (Homo sapiens) (UniProt Q14671)
# T16 sequence: T1 sequence with V108W, N109C, V112A
# [17] = target: T17, PUM1 PUF domain R3-WCG C935W + R936C + Q939G (Homo sapiens) (UniProt Q14671)
# T17 sequence: T1 sequence with V108W, N109C, V112G
# [18] = target: T18, PUM1 PUF domain R3-YCD C935Y + R936C + Q939D (Homo sapiens) (UniProt Q14671)
# T18 sequence: T1 sequence with V108Y, N109C, V112D
# [19] = target: T19, PUM1 PUF domain R3-YCG C935Y + R936C + Q939G (Homo sapiens) (UniProt Q14671)
# T19 sequence: T1 sequence with V108Y, N109C, V112G
# [20] = target: T20, PUM1 PUF domain R3-YCV C935Y + R936C + Q939V (Homo sapiens) (UniProt Q14671)
# T20 sequence: T1 sequence with V108Y, N109C
# [21] = target: T21, PUM1 PUF domain R3-YRA C935Y + Q939A (Homo sapiens) (UniProt Q14671)
# T21 sequence: T1 sequence with V108Y, N109R, V112A
# [22] = target: T22, PUM1 PUF domain R3-YRF C935Y + Q939F (Homo sapiens) (UniProt Q14671)
# T22 sequence: T1 sequence with V108Y, N109R, V112F
# [23] = target: T23, PUM1 PUF domain R3-YRG C935Y + Q939G (Homo sapiens) (UniProt Q14671)
# T23 sequence: T1 sequence with V108Y, N109R, V112G
# [24] = target: T24, PUM1 PUF domain R3-YRL C935Y + Q939L (UniProt Q14671)
# T24 sequence: T1 sequence with V108Y, N109R, V112L
# [25] = target: T25, PUM1 PUF domain R3-YRQ C935Y (Homo sapiens) (UniProt Q14671)
# T25 sequence: T1 sequence with V108Y, N109R, V112Q
# [26] = target: T26, PUM1 PUF domain R3-YRS C935Y + Q939S (Homo sapiens) (UniProt Q14671)
# T26 sequence: T1 sequence with V108Y, N109R, V112S
# [27] = target: T27, PUM1 PUF domain R3-YRW C935Y + Q939W (Homo sapiens) (UniProt Q14671)
# T27 sequence: T1 sequence with V108Y, N109R, V112W
# [28] = target: T28, PUM1 PUF domain R3-YSG C935Y + R936S + Q939G (UniProt Q14671)
# T28 sequence: T1 sequence with V108Y, N109S, V112G
# [29] = target: T29, PUM1 PUF domain R3-YSV C935Y + R936S + Q939V (UniProt Q14671)
# T29 sequence: T1 sequence with V108Y, N109S
# [30] = target: T30, PUM1 PUF domain R3-YWW C935Y + R936W + Q939W (UniProt Q14671)
# T30 sequence: T1 sequence with V108Y, N109W, V112W
# [31] = target: T31, PUM1 PUF domain R5-PHQ R6-SWD C1007P + R1008H + N1043S + Y1044W + Q1047D (UniProt Q14671)
# T31 sequence: T1 sequence with V108C, N109R, V112Q, C180P, R181H, N216S, Y217W, Q220D
sequence,measurement,setting,value
GGCUAGAACUAGUGGAUCCCCCGGCGCCCGGCGGCUCGAGCCCGGGUAAGUGUAAUUAGUCUGCAUGCCGCCGGGCGCCAUGCCUGCAGGUCGACUCUAGAAAACAUG,binding signal (log2 enrichment (interaction score)),[1],-1.28
same,binding signal (log2 enrichment (interaction score)),[2],0.29
same,binding signal (log2 enrichment (interaction score)),[3],1.07
same,binding signal (log2 enrichment (interaction score)),[4],-1.7
same,binding signal (log2 enrichment (interaction score)),[5],< -7.02
same,binding signal (log2 enrichment (interaction score)),[6],-2.85
same,binding signal (log2 enrichment (interaction score)),[7],-0.39
same,binding signal (log2 enrichment (interaction score)),[8],-2.75
same,binding signal (log2 enrichment (interaction score)),[9],-0.21
same,binding signal (log2 enrichment (interaction score)),[10],-0.24
same,binding signal (log2 enrichment (interaction score)),[11],-0.06
same,binding signal (log2 enrichment (interaction score)),[12],-3.42
same,binding signal (log2 enrichment (interaction score)),[13],-0.81
same,binding signal (log2 enrichment (interaction score)),[14],-2.14
same,binding signal (log2 enrichment (interaction score)),[15],< -8.77
same,binding signal (log2 enrichment (interaction score)),[16],-1.55
same,binding signal (log2 enrichment (interaction score)),[17],-0.53
same,binding signal (log2 enrichment (interaction score)),[18],-2.68
same,binding signal (log2 enrichment (interaction score)),[19],-2.15
same,binding signal (log2 enrichment (interaction score)),[20],-2.55
same,binding signal (log2 enrichment (interaction score)),[21],-2.45
same,binding signal (log2 enrichment (interaction score)),[22],0.21
same,binding signal (log2 enrichment (interaction score)),[23],-2.21
same,binding signal (log2 enrichment (interaction score)),[24],< -8.19
same,binding signal (log2 enrichment (interaction score)),[25],-1.39
same,binding signal (log2 enrichment (interaction score)),[26],-0
same,binding signal (log2 enrichment (interaction score)),[27],-0.42
same,binding signal (log2 enrichment (interaction score)),[28],-3.18
same,binding signal (log2 enrichment (interaction score)),[29],-4.96
same,binding signal (log2 enrichment (interaction score)),[30],-5.19
same,binding signal (log2 enrichment (interaction score)),[31],-7.11
